This passage reports binding results from paper PMC10769875.

Sequences of proteins named here, by UniProt entry; tags and fusion partners are left off. A change or cut given only in a name is not applied to a line headed by its entry.
UniProt Q79NI3: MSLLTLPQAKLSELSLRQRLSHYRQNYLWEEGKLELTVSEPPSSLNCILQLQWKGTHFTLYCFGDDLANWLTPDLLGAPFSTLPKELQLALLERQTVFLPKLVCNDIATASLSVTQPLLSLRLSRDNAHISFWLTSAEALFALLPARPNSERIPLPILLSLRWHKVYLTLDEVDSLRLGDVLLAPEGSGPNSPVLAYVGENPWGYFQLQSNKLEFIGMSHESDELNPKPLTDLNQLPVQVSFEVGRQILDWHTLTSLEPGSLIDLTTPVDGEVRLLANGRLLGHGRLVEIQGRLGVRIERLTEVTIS

Results are given in words; binding and its absence hold for the method and conditions named. Binding seen in cells or lysates may run through a third protein. Some binding calls cover weakened binding; strength is not graded here.

For this assay, the target named is SctQ-Flag (Y. enterocolitica) (UniProt Q79NI3). Nature of the assay: pull-down.

Regarding “SctQC (from UniProt Q79NI3 218-307) (domain or fragment)”, the binding entry is listed as “binds”.
